# Reference: patent US10016378B2, “Compositions and methods for inhibiting intimal hyperplasia” (priority 2014, dated 2018)
# “Also recorded” adds a separate entry of the source. At least one structure is not confirmed: it was looked up by name or label, or the drawing left a doubt.
# Experiments:
# [1] = system: balloon-injured rat aortas; assay: Balloon injury (abdominal aortic denudation) of Lewis rat aortas; format: in vivo, Lewis rats
# [2] = system: atherosclerotic plaque formation; assay: Atherosclerotic lesions in ApoE−/− mice on atherogenic western diet; format: in vivo; conditions: atherogenic western diet for 5 months; Sudan III staining
# [3] = system: human internal mammary arteries (hMA); assay: Humanized hMA model: balloon-injured human internal mammary arteries implanted into RNU-rats; format: in vivo, human arteries in RNU-rats
# [4] = system: human coronary arteries (hCor); assay: hCor model: balloon-injured human coronary arteries implanted as for hMA; format: in vivo, human arteries in RNU-rats; conditions: oral DCA
# rabbit iliac arteries = assay: Rabbit iliac artery balloon injury model; format: in vivo; conditions: after 28 days
# swine coronary arteries = assay: Swine model of coronary artery re-stenosis (balloon injury); format: in vivo, Yorkshire swine; conditions: after 28 days
# human vascular SMCs = assay: Cultured human vascular SMCs, PDGF stimulation / staurosporine apoptosis induction; format: cell-based
# Excerpt: Proliferation and apoptosis leveled off after twenty eight (28) days when there was also no further progression of myointimal disease (FIGS. 1c, 1e). […] Human vascular SMCs were isolated from fresh hMA and characterized (Extended Data FIGS. 4e-4f). PDGF was then shown to induce ΔΨm hyperpolarization in cultured SMCs (Extended Data FIG. 4g), similar to the ΔΨm hyperpolarization previous observed in injured hMAs (FIG. 1f). Thus, mitochondrial ΔΨm hyperpolarization in myointimal SMCs and cultured SMCs coincided with the availability of PDGF.
# human EC monolayer = assay: Scratch across confluent human EC monolayer (EC migration); format: cell-based; conditions: in vitro
# PDK2-KD-SMCs = assay: ΔΨm in PDK2-knock-down SMCs (PDK2 lenti-shRNA); format: cell-based, human
# [5] = system: PDH siRNA-transfected SMCs; assay: ΔΨm in PDH siRNA-transfected SMCs; format: cell-based, human; conditions: PDH knocked down
# A549 cells = conditions: cited from earlier work
# [6] = region of ruptured internal elastic lamina
smiles,measurement,setting,value
"O=C(O)C(Cl)Cl [DCA, dichloroacetate]",myointimal ΔΨm,[1]; 28 days,little effect
same,TUNEL positive apoptotic cells within the intimal hyperplasia,"[1]; after 28d, p=0.006 vs. untreated animals",significantly increased
same,myointima formation,[1]; after 28 days,effectively alleviated; also recorded: remarkably reduced
same,hyperplasia area (apoptosis induced),"[1]; delayed DCA treatment, p=0.005 vs. untreated control",shrinking hyperplasia area
same,hyperplasia area (apoptosis induced),"[1]; early DCA treatment, p=0.014 vs. untreated control",shrinking hyperplasia area
same,leukocyte infiltration in the media,"[1]; oral DCA, 48 h",did not affect
same,ΔΨm in the media,"[1]; oral DCA, 48 h",reduced; also recorded: effectively lowered
same,accumulation of CD68+ macrophages and MPO+ neutrophils in the developing myointima,"[1]; oral DCA, 7 days",not affected
same,apoptosis in myointima,[1]; seven days,permitted apoptosis
same,myointimal ΔΨm,[1]; seven days,effectively lowered; also recorded: markedly reduced
same,atherosclerotic plaque formation,[2],No significant reduction
same,ΔΨm,[3]; 21-day hMA specimens vs control arteries,significantly lower
same,net proliferation,[3]; DCA-treated vessels,much lower
same,apoptotic activity in myointima,"[3]; DCA-treated vessels, each time point",enhanced
same,development of myointima and luminal narrowing (luminal obliteration),"[3]; oral DCA, 28 days",strongly reduced
same,development of myointima and luminal narrowing (luminal obliteration),[4],reduced; also recorded: strongly reduced
same,myointima formation,rabbit iliac arteries,remarkably reduced
same,luminal obliteration,swine coronary arteries,significantly reduced
same,patent lumen inside the external elastic lamina,swine coronary arteries,significantly larger
same,max. proliferation thickness,swine coronary arteries; [6],significantly smaller; also recorded: significantly reduced
same,proliferation area,swine coronary arteries; [6],significantly smaller; also recorded: significantly reduced
same,HK2-mitochondrial association,human vascular SMCs; PDGF-stimulated SMCs,diminished
same,HK2 elevation,"human vascular SMCs; PDGF-stimulated SMCs, immunoblots",diminished
same,ΔΨm despite PDGF,human vascular SMCs; PDGF-treated SMCs,maintained low ΔΨm
same,ΔΨm hyperpolarization,human vascular SMCs; PDGF-treated SMCs isolated from atherosclerotic vessels,effectively prevented
same,ΔΨm hyperpolarization,human vascular SMCs; PDGF-treated SMCs isolated from healthy vessels,effectively prevented
same,apoptosis,"human vascular SMCs; PDGF, staurosporine-induced",restored the ability to enter apoptosis
same,cytochrome C release,"human vascular SMCs; PDGF, staurosporine-induced",increased
same,EC migration (anti-migratory effects on endothelial cells),human EC monolayer,does not impair; also recorded: neither demonstrated anti-migratory effects
same,effect on ΔΨm,PDK2-KD-SMCs,lost its ability to affect ΔΨm
same,effect on ΔΨm,[5],lost its ability to depolarize ΔΨm
same,ΔΨm,A549 cells,reduce ΔΨm
